Experiment [1] deals with OSD1ΔD′, yeast two-hybrid bait (Arabidopsis thaliana) (UniProt Q9M2R1). The experiment in a line: two-hybrid; OSD1 mutant alleles as bait (pDEST32) against CCS52A1 as prey (pDEST22), cotransformation into yeast strain PJ69-4a.
Experiment [2] has as its target OSD1ΔMR, yeast two-hybrid bait (Arabidopsis thaliana) (UniProt Q9M2R1). Described as above.

Amino acid sequences for entries named in this document (tags omitted). A change or cut given only in a name is not applied to a line headed by its entry.
UniProt Q9M2R1: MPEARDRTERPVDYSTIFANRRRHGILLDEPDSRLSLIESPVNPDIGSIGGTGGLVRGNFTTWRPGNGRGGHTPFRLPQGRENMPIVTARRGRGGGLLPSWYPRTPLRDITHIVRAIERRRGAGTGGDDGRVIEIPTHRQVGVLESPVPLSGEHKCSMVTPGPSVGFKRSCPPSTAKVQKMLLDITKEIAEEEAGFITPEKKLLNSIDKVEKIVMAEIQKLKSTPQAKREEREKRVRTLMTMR

These are yes or no findings as the source states them, for the method shown. Binding can be weak; no strength is given.

B1: CCS52A1, yeast two-hybrid prey (protein, UniProt Q8L3Z8 1-483)
chain: MEEEDPTASNVITNSNSSSMRNLSPAMNTPVVSLESRINRLINANQSQSPSPSSLSRSIYSDRFIPSRSGSNFALFDLSPSPSKDGKEDGAGSYATLLRAAMFGPETPEKRDITGFSSSRNIFRFKTETHRSLNSFSPFGVDDDSPGVSHSGPVKAPRKVPRSPYKVLDAPALQDDFYLNLVDWSAQNVLAVGLGNCVYLWNACSSKVTKLCDLGAEDSVCSVGWALRGTHLAVGTSTGKVQIWDASRCKRTRTMEGHRLRVGALAWGSSVLSSGSRDKSILQRDIRCQEDHVSKLAGHKSEVCGLKWSYDNRELASGGNDNRLFVWNQHSTQPVLKYSEHTAAVKAIAWSPHVHGLLASGGGTADRCIRFWNTTTNTHLSSIDTCSQVCNLAWSKNVNELVSTHGYSQNQIIVWKYPTMSKIATLTGHTYRVLYLAVSPDGQTIVTGAGDETLRFWNVFPSPKSQNTDSEIGSSFFGRTTIR
As to B1, the binding entry in experiment [1] and in experiment [2] was “binds” throughout.

These data come from PMC3406007.
